This is one part of the list.
How the values were obtained:
Assay in all cases: log2 fold change, soluble protein after heating vs DMSO (PISA); higher = thermal stabilisation; K562 lysate, 10 uM; active = over 0.2 and 3.5 SD of the protein, either way, in both replicates (recomputed)
[1] = compound: C=CC(=O)N1CCC[C@@H](n2nc(-c3ccc(Oc4ccccc4)cc3)c3c(N)ncnc32)C1 [ibrutinib]
Procedure, shortened: (§1)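 Log-two fold change in thermal stability relative to solvent controls is reported from duplicates. For each sample, crude K562 extract from dounce-homogenised pellets in PBS pH 7.4 with 1 mM MgCl2, at 1 mg/mL protein, was treated with 10 μM compound for 30 min. Aliquots heated for 3 min across 48°C-58°C were pooled, brought to 0.5% NP-40 at 4°C and cleared at 21,000xg for 90 min. The supernatant was quantified by TMTpro 16plex LC-MS/MS with channel sums equalised.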

Sequences of proteins named here, by UniProt entry; tags and fusion partners are left off. A change or cut given only in a name is not applied to a line headed by its entry.
UniProt P20073: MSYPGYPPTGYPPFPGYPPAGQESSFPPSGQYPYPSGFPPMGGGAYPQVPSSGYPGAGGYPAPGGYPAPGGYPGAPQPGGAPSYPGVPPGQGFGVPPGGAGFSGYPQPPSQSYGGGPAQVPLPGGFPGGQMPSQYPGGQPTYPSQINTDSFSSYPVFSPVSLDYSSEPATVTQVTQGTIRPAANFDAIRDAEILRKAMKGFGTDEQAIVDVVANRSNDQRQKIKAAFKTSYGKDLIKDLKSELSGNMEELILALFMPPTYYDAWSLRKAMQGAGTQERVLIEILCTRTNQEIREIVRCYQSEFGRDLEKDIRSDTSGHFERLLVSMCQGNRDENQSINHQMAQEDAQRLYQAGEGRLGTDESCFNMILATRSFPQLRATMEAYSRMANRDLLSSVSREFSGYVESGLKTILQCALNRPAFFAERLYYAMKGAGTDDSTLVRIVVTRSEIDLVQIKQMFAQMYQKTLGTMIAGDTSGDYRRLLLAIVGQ
UniProt P50995, whole entry, looked up: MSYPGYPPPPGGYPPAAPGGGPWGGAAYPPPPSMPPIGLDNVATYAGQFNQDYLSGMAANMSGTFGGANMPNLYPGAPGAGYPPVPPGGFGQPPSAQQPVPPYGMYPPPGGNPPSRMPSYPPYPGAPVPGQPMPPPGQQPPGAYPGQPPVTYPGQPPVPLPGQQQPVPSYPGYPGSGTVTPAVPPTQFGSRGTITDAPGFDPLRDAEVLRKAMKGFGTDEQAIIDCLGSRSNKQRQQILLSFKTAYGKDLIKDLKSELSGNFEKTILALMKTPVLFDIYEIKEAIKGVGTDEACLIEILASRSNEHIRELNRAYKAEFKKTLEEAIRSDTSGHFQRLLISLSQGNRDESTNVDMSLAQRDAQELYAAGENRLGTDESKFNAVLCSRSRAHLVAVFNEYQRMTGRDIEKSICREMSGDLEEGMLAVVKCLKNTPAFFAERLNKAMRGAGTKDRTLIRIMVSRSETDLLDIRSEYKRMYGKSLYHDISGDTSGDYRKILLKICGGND
UniProt P58335, whole entry, looked up: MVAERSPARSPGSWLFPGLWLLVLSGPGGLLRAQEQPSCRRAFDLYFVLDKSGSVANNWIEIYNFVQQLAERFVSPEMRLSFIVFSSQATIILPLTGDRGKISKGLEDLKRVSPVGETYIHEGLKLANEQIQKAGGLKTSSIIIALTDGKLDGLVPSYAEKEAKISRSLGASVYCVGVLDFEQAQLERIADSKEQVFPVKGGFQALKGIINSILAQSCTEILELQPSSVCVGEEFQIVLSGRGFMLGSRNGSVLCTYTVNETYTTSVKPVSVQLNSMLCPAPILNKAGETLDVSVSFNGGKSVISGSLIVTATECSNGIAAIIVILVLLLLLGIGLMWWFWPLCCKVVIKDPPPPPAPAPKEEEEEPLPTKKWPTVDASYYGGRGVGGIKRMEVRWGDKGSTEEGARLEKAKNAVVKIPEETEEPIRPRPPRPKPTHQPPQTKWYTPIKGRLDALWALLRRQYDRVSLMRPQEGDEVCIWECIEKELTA
UniProt Q9NP73: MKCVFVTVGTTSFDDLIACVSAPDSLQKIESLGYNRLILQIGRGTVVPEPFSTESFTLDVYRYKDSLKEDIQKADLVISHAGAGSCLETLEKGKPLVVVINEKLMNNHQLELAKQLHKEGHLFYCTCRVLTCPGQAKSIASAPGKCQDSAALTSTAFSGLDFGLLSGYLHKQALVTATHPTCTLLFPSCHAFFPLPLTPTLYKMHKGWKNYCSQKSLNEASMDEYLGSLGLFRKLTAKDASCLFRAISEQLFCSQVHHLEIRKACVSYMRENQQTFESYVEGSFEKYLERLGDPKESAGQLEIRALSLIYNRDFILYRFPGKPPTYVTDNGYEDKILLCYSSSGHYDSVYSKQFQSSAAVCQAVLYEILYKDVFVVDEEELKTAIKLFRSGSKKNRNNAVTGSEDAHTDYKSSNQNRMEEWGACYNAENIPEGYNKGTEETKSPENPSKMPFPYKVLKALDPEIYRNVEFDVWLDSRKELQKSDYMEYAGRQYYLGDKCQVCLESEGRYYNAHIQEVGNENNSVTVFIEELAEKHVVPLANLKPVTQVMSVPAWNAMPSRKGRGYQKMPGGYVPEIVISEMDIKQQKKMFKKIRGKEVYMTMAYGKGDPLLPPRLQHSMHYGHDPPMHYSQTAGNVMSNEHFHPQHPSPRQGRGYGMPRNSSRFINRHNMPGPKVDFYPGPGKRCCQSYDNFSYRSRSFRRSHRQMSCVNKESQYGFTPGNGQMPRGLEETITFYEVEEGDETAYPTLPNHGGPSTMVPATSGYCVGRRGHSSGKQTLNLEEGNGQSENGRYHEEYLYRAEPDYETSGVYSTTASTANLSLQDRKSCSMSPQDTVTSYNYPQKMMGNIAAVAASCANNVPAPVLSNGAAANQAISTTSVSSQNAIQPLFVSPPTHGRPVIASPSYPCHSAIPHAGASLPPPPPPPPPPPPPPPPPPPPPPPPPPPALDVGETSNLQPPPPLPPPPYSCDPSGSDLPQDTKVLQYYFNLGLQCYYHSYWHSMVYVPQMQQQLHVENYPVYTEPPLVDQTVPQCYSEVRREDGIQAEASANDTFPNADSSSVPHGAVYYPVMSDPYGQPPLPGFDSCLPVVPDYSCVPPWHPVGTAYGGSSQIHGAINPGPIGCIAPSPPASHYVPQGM
UniProt Q96BT7: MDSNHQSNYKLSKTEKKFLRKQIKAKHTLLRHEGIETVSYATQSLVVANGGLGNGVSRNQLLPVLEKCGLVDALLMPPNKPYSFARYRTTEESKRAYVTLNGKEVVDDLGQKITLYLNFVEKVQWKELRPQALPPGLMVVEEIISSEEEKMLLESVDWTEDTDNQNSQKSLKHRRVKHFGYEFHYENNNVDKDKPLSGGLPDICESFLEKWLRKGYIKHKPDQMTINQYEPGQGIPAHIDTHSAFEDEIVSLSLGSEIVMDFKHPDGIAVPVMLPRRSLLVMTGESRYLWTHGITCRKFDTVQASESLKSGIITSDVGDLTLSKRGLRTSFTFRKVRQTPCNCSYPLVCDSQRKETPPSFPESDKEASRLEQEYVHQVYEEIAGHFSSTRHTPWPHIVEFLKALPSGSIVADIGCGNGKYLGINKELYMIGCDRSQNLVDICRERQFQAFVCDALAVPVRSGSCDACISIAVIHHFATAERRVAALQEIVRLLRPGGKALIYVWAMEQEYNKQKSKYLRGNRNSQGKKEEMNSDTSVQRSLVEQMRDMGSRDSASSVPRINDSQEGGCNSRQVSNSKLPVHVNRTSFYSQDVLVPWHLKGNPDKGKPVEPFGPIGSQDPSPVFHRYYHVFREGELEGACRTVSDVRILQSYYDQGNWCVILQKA
UniProt P39687: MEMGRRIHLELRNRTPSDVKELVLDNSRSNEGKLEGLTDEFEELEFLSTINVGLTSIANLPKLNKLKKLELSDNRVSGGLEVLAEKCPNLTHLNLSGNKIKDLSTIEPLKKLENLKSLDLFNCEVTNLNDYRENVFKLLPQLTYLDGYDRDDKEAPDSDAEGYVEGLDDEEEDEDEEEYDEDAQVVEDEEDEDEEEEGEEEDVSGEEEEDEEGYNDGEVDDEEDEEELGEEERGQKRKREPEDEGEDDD
UniProt P00352: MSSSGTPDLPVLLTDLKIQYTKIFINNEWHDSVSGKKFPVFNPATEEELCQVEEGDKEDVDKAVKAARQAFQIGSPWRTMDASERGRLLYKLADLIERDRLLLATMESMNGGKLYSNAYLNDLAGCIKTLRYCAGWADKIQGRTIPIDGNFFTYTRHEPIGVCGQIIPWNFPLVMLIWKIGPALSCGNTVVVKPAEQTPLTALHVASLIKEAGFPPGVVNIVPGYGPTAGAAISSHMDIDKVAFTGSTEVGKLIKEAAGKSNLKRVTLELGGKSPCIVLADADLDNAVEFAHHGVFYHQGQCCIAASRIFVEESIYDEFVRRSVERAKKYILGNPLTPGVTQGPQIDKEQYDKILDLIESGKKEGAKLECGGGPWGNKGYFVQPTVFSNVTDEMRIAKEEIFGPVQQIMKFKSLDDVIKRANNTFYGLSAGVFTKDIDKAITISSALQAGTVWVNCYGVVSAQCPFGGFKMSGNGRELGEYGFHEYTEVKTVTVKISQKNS
UniProt Q92572: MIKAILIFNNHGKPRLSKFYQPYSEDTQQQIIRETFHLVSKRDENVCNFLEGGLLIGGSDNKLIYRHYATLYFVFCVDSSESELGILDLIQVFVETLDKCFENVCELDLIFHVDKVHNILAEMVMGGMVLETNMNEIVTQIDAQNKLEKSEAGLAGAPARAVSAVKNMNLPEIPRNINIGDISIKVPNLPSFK
UniProt P30837: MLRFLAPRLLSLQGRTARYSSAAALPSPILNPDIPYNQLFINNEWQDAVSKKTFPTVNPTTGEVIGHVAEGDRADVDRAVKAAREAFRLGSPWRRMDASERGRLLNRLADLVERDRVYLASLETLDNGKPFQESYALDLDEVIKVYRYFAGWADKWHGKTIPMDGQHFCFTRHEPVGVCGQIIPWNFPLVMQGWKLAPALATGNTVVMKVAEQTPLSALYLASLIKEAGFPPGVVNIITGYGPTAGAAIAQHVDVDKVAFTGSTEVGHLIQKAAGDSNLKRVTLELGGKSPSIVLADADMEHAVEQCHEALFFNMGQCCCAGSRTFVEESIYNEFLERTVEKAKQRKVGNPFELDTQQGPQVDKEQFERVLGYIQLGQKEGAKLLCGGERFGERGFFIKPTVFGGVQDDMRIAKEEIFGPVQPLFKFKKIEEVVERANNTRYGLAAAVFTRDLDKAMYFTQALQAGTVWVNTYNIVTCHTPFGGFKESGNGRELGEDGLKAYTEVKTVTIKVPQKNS
UniProt P15144: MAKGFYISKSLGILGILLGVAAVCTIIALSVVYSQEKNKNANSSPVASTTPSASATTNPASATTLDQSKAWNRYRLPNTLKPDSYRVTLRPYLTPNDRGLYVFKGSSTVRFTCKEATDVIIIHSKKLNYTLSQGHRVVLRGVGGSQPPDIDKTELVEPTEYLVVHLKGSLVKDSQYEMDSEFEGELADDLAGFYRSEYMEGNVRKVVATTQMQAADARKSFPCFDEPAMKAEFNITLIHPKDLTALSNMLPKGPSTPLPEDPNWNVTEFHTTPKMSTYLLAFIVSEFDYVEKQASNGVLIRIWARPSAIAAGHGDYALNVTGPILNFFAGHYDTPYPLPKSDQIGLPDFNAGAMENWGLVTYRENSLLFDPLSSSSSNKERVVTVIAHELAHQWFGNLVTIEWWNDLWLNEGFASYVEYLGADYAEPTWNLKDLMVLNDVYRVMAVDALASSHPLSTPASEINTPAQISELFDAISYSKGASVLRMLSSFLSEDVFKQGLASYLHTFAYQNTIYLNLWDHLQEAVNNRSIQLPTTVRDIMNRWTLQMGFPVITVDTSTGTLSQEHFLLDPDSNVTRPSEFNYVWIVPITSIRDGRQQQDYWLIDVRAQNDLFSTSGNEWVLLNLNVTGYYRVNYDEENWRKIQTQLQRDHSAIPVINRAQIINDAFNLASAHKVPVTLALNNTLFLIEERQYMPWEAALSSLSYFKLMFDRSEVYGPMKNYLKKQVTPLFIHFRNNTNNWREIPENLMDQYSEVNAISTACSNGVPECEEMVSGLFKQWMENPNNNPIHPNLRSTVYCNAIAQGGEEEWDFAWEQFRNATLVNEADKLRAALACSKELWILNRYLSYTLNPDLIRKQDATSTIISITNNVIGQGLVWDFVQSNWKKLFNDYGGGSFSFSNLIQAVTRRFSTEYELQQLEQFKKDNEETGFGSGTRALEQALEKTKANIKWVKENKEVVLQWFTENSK
UniProt Q01433: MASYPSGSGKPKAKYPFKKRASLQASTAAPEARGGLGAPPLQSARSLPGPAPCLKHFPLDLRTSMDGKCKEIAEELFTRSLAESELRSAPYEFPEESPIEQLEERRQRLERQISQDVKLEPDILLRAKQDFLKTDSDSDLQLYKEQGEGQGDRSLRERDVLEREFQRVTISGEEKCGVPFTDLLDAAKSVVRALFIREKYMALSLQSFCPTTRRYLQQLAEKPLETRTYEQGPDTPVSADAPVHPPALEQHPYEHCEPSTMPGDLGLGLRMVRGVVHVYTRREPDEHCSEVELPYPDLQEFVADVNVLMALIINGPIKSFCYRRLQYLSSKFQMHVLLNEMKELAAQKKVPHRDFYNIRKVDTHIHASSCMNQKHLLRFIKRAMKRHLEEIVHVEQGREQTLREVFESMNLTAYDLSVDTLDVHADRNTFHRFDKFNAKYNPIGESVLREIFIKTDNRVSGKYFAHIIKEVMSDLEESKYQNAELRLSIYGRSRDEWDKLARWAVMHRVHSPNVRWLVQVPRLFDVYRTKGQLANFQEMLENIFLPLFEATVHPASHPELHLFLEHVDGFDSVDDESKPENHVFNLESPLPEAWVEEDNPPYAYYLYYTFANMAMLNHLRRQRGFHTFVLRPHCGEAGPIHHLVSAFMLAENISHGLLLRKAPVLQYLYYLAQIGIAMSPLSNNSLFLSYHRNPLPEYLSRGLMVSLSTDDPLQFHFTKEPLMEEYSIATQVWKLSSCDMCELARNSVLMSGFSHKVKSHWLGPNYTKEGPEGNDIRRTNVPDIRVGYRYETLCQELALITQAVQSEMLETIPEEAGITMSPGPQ

[2] = compound: CC(=O)c1cnc2ccc(-c3cc(Cl)c(O)c(Cl)c3)nc2c1N[C@H]1CC[C@H](CN(C)C)CC1
Procedure, shortened: as §1

[3] = compound: CC(C)(C)Cn1c(N)nc2ccc(-c3[nH]c(C(C)(C)C)nc3-c3ccc(F)cc3)nc21 [ralimetinib]
Procedure, shortened: as §1

[4] = compound: CC(C)(O)CC(=O)NCCn1ccc2ncnc(Nc3ccc(Oc4cccc(C(F)(F)F)c4)c(Cl)c3)c21
Procedure, shortened: as §1

[5] = compound: CC(C)C1=C2N=C(C=C(N2N=C1)NCC3=CC=CC=C3)NCCCCCCN
Procedure, shortened: as §1

[6] = compound: CC1=C(C(CC(=O)N1)C2=CC=C(C=C2)C(F)(F)F)C(=O)NC3=C(C=C4C(=C3)C=NN4)F
Procedure, shortened: as §1

[7] = compound: CC1=C(C2=C(C=C1)C(=O)C3=CC=CC=C3N2CCCN)C
Procedure, shortened: as §1

[8] = compound: CC1=C(C=C(C=C1)NC(=O)C2=CC(=CC=C2)C(C)(C)C#N)NC3=CC4=C(C=C3)N=CN(C4=O)C
Procedure, shortened: as §1

[9] = compound: CC1=C(C=C(C=C1)NC(=O)C2=CC(=CC=C2)N(C)C)NC(=O)C3=CC=C(C=C3)O
Procedure, shortened: as §1

[10] = compound: CC1=CC=C(C=C1)SC2=C3C=C(SC3=CN=C2)C(=O)N
Procedure, shortened: as §1

[11] = compound: CCCS(=O)(=O)Nc1ccc(F)c(C(=O)c2c[nH]c3ncc(-c4ccc(Cl)cc4)cc23)c1F [vemurafenib]
Procedure, shortened: as §1

[12] = compound: CCCS(=O)(=O)Nc1ccc(F)c(C(=O)c2c[nH]c3ncc(Cl)cc23)c1F
Procedure, shortened: as §1

[13] = compound: CCN(CCCOc1ccc2c(Nc3cc(CC(=O)Nc4cccc(F)c4)[nH]n3)ncnc2c1)CCOP(=O)(O)O [barasertib]
Procedure, shortened: as §1

[14] = compound: CC[C@@H]1C(=O)N(C)c2cnc(Nc3ccc(C(=O)NC4CCN(C)CC4)cc3OC)nc2N1C1CCCC1
Procedure, shortened: as §1

[15] = compound: CC[C@@H]1C(=O)N(C)c2cnc(Nc3ccc(C(=O)N[C@H]4CC[C@H](N5CCN(CC6CC6)CC5)CC4)cc3OC)nc2N1C(C)C [volasertib]
Procedure, shortened: as §1

[16] = compound: CCn1c(C(=O)N(C2CC2)C2CC2)cc2c3c(ncn3C)c(Nc3cc(C)n(C)n3)nc21
Procedure, shortened: as §1

[17] = compound: CCn1cc(-c2ccnc3[nH]c(-c4cccc(CN(C)C)c4)cc23)c(-c2ccc(NC(=O)N(C)C)cc2)n1
Procedure, shortened: as §1

[18] = compound: CN1CCC(CNc2ccc3ncc(-c4cccc(OC(F)(F)F)c4)n3n2)CC1
Procedure, shortened: as §1

[19] = compound: CN1CCN(CCOc2cc(OC3CCOCC3)c3c(Nc4c(Cl)ccc5c4OCO5)ncnc3c2)CC1 [saracatinib]
Procedure, shortened: as §1

[20] = compound: CN1CCN(c2nc(C3=C(c4c[nH]c5ccccc45)C(=O)NC3=O)c3ccccc3n2)CC1 [sotrastaurin]
Procedure, shortened: as §1

Measured: log2 fold change

ANXA7 (UniProt P20073)
inactive: [1] 0.002 | [2] -0.009 | [3] 0 | [4] 0.021 | [5] 0.002 | [6] -0.024 | [7] 0.012 | [8] -0.031 | [9] -0.031 | [10] 0.017 | [11] 0.002 | [12] 0.024 | [13] 0.016 | [14] -0.023 | [15] -0.013 | [16] -0.002 | [17] -0.054 | [18] 0.009 | [19] -0.016 | [20] 0

ANXA11 (UniProt P50995)
inactive: [1] -0.005 | [2] -0.027 | [3] -0.002 | [4] 0.057 | [5] 0.034 | [6] -0.031 | [7] 0.023 | [8] -0.041 | [9] 0.01 | [10] 0 | [11] 0.02 | [12] -0.013 | [13] 0.002 | [14] 0.024 | [15] -0.031 | [16] 0.044 | [17] -0.049 | [18] -0.01 | [19] -0.009 | [20] -0.017

ALMS1 (UniProt Q8TCU4)
inactive: [1] 0.046 | [2] -0.206 | [3] 0.007 | [4] -0.021 | [5] 0.028 | [6] -0.108 | [7] -0.073 | [8] 0.181 | [9] 0.011 | [10] 0.076 | [11] 0.064 | [12] 0.025 | [13] 0.002 | [14] 0.02 | [15] 0.072 | [16] -0.024 | [17] -0.054 | [18] 0.039 | [19] 0.003 | [20] 0

ANTXR2 isoform 4 (UniProt P58335)
inactive: [1] 0.036 | [2] -0.027 | [3] -0.035 | [4] -0.051 | [5] -0.034 | [6] 0.003 | [7] -0.011 | [8] 0.036 | [9] 0.013 | [10] -0.024 | [11] 0.03 | [12] -0.001 | [13] 0 | [14] 0.004 | [15] 0.032 | [16] -0.031 | [17] -0.111 | [18] 0.107 | [19] -0.026 | [20] 0

ANKRD27 (UniProt Q96NW4)
inactive: [1] 0.016 | [2] -0.003 | [3] -0.028 | [4] -0.009 | [5] 0.032 | [6] 0.033 | [7] -0.014 | [8] 0.089 | [9] 0.013 | [10] -0.102 | [11] -0.016 | [12] 0.006 | [13] 0.043 | [14] 0.01 | [15] -0.075 | [16] 0.001 | [17] -0.042 | [18] -0.073 | [19] 0.054 | [20] -0.002

Random excerpt: two entries already listed, in no set order.
ANTXR2 isoform 4 (UniProt P58335)
inactive: [1] 0.036 | [2] -0.027 | [3] -0.035 | [4] -0.051 | [5] -0.034 | [6] 0.003 | [7] -0.011 | [8] 0.036 | [9] 0.013 | [10] -0.024 | [11] 0.03 | [12] -0.001 | [13] 0 | [14] 0.004 | [15] 0.032 | [16] -0.031 | [17] -0.111 | [18] 0.107 | [19] -0.026 | [20] 0

ALMS1 (UniProt Q8TCU4)
inactive: [1] 0.046 | [2] -0.206 | [3] 0.007 | [4] -0.021 | [5] 0.028 | [6] -0.108 | [7] -0.073 | [8] 0.181 | [9] 0.011 | [10] 0.076 | [11] 0.064 | [12] 0.025 | [13] 0.002 | [14] 0.02 | [15] 0.072 | [16] -0.024 | [17] -0.054 | [18] 0.039 | [19] 0.003 | [20] 0

(list continues)

AP1G1 isoform 2 (UniProt O43747)
inactive: [1] -0.017 | [2] -0.014 | [3] 0.012 | [4] -0.016 | [5] -0.036 | [6] -0.022 | [7] 0.008 | [8] 0.013 | [9] -0.044 | [10] -0.007 | [11] -0.008 | [12] 0.026 | [13] 0.014 | [14] 0.008 | [15] 0.012 | [16] -0.027 | [17] -0.096 | [18] 0.066 | [19] -0.014 | [20] 0.014

ALG13 (UniProt Q9NP73)
inactive: [1] 0.118 | [2] 0.037 | [3] 0.008 | [4] 0.026 | [5] 0.022 | [6] 0.065 | [7] -0.025 | [8] 0.063 | [9] 0.012 | [10] -0.001 | [11] 0.014 | [12] 0.015 | [13] 0.054 | [14] 0.041 | [15] -0.041 | [16] -0.016 | [17] -0.14 | [18] 0.086 | [19] 0.023 | [20] 0.017

ALAD (UniProt P13716)
inactive: [1] 0.031 | [2] 0.011 | [3] -0.007 | [4] -0.066 | [5] -0.011 | [6] 0.011 | [7] -0.022 | [8] 0.025 | [9] 0 | [10] -0.023 | [11] 0.034 | [12] 0.011 | [13] 0.017 | [14] 0.062 | [15] 0.006 | [16] -0.04 | [17] -0.077 | [18] 0.053 | [19] 0.024 | [20] 0.025

ALKBH8 isoform 4 (UniProt Q96BT7)
inactive: [1] 0.025 | [2] -0.004 | [3] 0.012 | [4] -0.03 | [5] 0.046 | [6] 0.032 | [7] -0.073 | [8] -0.015 | [9] 0.014 | [10] 0.005 | [11] 0.033 | [12] 0.02 | [13] 0.043 | [14] 0.046 | [15] -0.039 | [16] -0.059 | [17] -0.058 | [18] 0.132 | [19] 0.01 | [20] 0.025

ANP32A (UniProt P39687)
inactive: [1] 0.003 | [2] -0.003 | [3] 0.002 | [4] 0.188 | [5] -0.041 | [6] -0.029 | [7] 0.079 | [8] -0.025 | [9] -0.046 | [10] -0.018 | [11] -0.025 | [12] 0.052 | [13] -0.007 | [14] -0.011 | [15] 0.006 | [16] -0.008 | [17] -0.085 | [18] 0.062 | [19] -0.033 | [20] -0.002

ALDH1A1 (UniProt P00352)
active: [7] 0.26
inactive: [1] 0.092 | [2] 0.019 | [3] 0.037 | [4] 0.037 | [5] -0.029 | [6] 0 | [8] -0.005 | [9] 0.028 | [10] 0.011 | [11] -0.027 | [12] 0.001 | [13] -0.014 | [14] -0.016 | [15] -0.005 | [16] -0.052 | [17] 0.051 | [18] -0.09 | [19] 0.272 | [20] 0.001

AP3S1 (UniProt Q92572)
inactive: [1] 0.025 | [2] 0.01 | [3] 0.02 | [4] 0.003 | [5] 0.021 | [6] -0.061 | [7] 0.012 | [8] -0.001 | [9] -0.052 | [10] -0.017 | [11] 0.047 | [12] -0.004 | [13] 0.049 | [14] 0.073 | [15] -0.005 | [16] -0.004 | [17] -0.113 | [18] 0.039 | [19] -0.01 | [20] 0.042

ALDH1B1 (UniProt P30837)
inactive: [1] 0.008 | [2] 0.086 | [3] 0.019 | [4] 0.02 | [5] 0.056 | [6] -0.024 | [7] -0.005 | [8] -0.018 | [9] -0.014 | [10] -0.018 | [11] 0.008 | [12] 0.017 | [13] -0.022 | [14] 0.029 | [15] -0.013 | [16] -0.062 | [17] -0.015 | [18] 0.108 | [19] 0.011 | [20] 0.022

ANPEP (UniProt P15144)
inactive: [1] 0.002 | [2] 0.056 | [3] 0.005 | [4] -0.012 | [5] -0.019 | [6] 0.104 | [7] -0.037 | [8] -0.017 | [9] -0.01 | [10] -0.007 | [11] 0.179 | [12] 0.023 | [13] -0.053 | [14] 0.011 | [15] -0.189 | [16] -0.041 | [17] -0.178 | [18] 0.161 | [19] 0.042 | [20] -0.029

AMPD2 (UniProt Q01433)
inactive: [1] -0.01 | [2] -0.004 | [3] 0.007 | [4] -0.009 | [5] -0.028 | [6] -0.009 | [7] 0.01 | [8] -0.021 | [9] -0.012 | [10] 0.006 | [11] -0.017 | [12] -0.005 | [13] -0.016 | [14] 0.016 | [15] 0.017 | [16] -0.003 | [17] -0.035 | [18] 0.028 | [19] -0.004 | [20] 0.026

ALG1 (UniProt Q9BT22)
inactive: [1] -0.079 | [2] -0.093 | [3] -0.011 | [4] 0.064 | [5] 0.036 | [6] 0.042 | [7] 0.005 | [8] 0 | [9] -0.062 | [10] 0.008 | [11] -0.035 | [12] -0.01 | [13] -0.122 | [14] 0.017 | [15] -0.022 | [16] -0.017 | [17] -0.12 | [18] -0.054 | [19] 0.02 | [20] -0.014
